Binding data for four molecules are collected here from paper PMC11027413.

Protein sequences, listed by entry. Tags and fused reporters are not part of them. Lines headed by an entry give the natural chain unless they say otherwise; changes in a name come on top.
UniProt P50750: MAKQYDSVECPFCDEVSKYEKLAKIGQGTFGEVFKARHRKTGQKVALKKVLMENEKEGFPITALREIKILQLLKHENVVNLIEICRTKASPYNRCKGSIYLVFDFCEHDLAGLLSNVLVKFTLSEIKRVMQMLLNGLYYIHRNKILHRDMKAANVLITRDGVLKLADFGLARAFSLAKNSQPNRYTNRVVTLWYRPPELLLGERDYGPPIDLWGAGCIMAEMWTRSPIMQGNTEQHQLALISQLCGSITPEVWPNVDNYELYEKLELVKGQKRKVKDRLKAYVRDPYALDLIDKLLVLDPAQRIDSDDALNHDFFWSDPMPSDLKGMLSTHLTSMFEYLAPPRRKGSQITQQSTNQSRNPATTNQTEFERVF
UniProt O60563: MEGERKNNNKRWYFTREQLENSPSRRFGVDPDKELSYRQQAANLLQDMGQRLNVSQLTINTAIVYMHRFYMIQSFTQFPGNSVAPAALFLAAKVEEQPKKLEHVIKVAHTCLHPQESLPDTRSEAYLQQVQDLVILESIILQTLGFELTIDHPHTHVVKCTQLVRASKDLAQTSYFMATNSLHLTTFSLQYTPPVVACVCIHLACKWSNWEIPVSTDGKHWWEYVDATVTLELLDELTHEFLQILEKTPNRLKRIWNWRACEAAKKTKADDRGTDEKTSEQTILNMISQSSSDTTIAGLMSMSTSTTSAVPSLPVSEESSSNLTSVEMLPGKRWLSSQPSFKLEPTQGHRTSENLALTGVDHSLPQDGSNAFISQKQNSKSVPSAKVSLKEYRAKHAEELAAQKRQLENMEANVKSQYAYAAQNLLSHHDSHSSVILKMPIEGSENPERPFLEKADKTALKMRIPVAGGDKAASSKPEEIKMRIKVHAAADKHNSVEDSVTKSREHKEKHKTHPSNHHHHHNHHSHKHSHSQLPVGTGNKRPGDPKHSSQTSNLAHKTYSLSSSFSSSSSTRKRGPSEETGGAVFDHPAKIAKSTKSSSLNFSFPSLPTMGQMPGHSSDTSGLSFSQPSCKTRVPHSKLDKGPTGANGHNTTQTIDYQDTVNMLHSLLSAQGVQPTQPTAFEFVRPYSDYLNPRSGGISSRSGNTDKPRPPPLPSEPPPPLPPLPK
UniProt O94992: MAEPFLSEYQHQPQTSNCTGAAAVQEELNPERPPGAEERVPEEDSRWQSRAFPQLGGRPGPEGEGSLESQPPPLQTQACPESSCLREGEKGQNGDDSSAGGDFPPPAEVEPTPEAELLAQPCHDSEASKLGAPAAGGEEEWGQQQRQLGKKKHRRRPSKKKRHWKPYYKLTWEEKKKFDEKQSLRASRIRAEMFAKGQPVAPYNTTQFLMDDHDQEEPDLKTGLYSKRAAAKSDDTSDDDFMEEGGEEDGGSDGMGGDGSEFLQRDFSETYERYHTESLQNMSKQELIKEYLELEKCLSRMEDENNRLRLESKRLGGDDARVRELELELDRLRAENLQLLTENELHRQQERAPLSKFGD
UniProt Q7L2J0: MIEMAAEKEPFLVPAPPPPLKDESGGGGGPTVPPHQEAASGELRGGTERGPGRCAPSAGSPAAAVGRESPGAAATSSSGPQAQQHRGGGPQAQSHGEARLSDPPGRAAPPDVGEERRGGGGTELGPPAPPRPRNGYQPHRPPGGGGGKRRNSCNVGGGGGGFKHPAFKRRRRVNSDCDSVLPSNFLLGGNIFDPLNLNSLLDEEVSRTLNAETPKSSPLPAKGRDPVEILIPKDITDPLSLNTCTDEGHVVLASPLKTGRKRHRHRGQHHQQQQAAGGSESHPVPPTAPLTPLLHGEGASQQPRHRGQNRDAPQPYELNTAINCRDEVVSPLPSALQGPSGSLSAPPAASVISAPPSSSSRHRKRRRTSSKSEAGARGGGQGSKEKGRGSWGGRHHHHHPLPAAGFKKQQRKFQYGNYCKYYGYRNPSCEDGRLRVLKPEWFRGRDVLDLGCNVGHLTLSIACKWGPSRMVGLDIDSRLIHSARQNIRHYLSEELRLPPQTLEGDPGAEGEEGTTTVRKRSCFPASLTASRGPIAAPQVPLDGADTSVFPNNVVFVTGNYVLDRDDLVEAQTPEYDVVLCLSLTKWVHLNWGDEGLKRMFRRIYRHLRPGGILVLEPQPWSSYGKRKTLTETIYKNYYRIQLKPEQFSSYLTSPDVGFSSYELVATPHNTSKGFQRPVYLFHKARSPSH

Where two headings read alike, the source gives them in different places. These are yes or no findings as the source states them, for the method shown. In cells and extracts the contact can be indirect. Some results given as binding are weak or reduced against the parent protein; the word gives no strength. For some assays here: Tags and fused reporters may be left off the sequences shown.

Test [1] addresses T1, FLAG-HRV-tagged RBM22 (human) (UniProt Q9NW64).
T1 sequence: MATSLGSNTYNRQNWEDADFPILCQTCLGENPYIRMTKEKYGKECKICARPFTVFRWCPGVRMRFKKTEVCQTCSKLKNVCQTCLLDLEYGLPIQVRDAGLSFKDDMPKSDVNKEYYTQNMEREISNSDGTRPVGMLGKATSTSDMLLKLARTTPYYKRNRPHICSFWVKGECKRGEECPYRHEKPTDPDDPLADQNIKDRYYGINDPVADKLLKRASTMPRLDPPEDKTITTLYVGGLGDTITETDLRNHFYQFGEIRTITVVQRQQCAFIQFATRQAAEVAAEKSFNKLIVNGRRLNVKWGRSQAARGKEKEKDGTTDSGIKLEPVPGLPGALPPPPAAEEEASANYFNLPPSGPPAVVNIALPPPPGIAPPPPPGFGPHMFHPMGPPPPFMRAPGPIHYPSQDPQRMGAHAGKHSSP
Briefly: co-IP; FLAG immunoprecipitation of FLAG-RBM22 from benzonase-treated lysate of the HepG2 FLAG-RBM22 line; Western blot of endogenous partners (Fig. 5c, 5j).

The target of test [2] is CDK9 (human (endogenous in HepG2)) (UniProt P50750). Briefly: co-IP; endogenous proteins in mAID-RBM22 HepG2 cells treated with DMSO or 5-Ph-IAA (acute depletion of RBM22); Western blot.
Test [3] addresses 7SK-P-TEFb complex (human (endogenous in HepG2)) (UniProt P50750+O60563+O94992+Q4G0J3+Q7L2J0). The experiment in a line: co-sedimentation; HepG2 cell lysate on a 10-40% glycerol gradient in NP-40 lysis buffer (50 mM HEPES pH 7.5, 100 mM NaCl), 50,000 rpm for 11 h at 4°C; fractions detected by Western blotting.
The target in test [4] is CDK9 (human (endogenous in HepG2)) (UniProt P50750). The experiment in a line: co-IP; reciprocal co-IP of endogenous proteins in wild-type HepG2 cells (Fig. 5k); which partner was precipitated is not told.
Test [5] addresses HEXIM1 (human (endogenous in HepG2)) (UniProt O94992). The description is as above.
For test [6], the target named is T2, LARP7 (human (endogenous in HepG2)) (UniProt Q4G0J3).
T2 sequence: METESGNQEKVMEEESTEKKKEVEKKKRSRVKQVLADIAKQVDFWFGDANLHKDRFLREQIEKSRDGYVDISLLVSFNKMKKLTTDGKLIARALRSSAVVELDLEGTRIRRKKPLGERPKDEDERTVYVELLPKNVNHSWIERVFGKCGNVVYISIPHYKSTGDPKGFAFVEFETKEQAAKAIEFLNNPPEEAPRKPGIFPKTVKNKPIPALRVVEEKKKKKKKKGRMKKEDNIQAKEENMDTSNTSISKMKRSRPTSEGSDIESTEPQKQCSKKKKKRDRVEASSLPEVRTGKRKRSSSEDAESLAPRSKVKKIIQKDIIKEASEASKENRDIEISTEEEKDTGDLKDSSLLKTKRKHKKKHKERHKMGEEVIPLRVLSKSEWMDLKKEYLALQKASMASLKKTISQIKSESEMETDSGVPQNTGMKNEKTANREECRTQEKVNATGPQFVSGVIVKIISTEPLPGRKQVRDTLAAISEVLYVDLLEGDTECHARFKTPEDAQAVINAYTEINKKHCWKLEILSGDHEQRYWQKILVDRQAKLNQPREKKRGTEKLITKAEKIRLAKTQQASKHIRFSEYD
Described as above.

The target of test [7] is T1, FLAG-HRV-tagged RBM22 (human). Briefly: co-IP; FLAG immunoprecipitation of FLAG-RBM22 from benzonase-treated lysate of the HepG2 FLAG-RBM22 line; Western blot of endogenous partners (Fig. 5c, 5j). The source holds these as a separate data set.

Regarding “CDK9 (from UniProt P50750 1-372) (enzyme)”, the binding entry in test [1] is listed as “binds”.
Take HEXIM1 (from UniProt O94992 1-359): the binding result in test [1] and in test [2] was “binds” throughout.
For “RBM22 (endogenous) (from UniProt Q9NW64 1-420)”, the binding entry in test [3], in test [4], in test [5] and in test [6] was “binds” throughout.

B1: LARP7 (protein, UniProt Q4G0J3 1-582)
chain: T2 sequence
With B1, in test [7], the binding entry was “binds”.
